In article PMC7730238, “Temporin-Like Peptides Show Antimicrobial and Anti-Biofilm Activities against Streptococcus mutans with Reduced Hemolysis” (Molecules, 2020):
No end group written: not given here.

System: Human red blood cells (hRBCs)
Type: cell-based
Details: ratio of HL50 to the MIC of the peptides against S. mutans
Method: The hemolytic toxicity of the peptides was determined as described. Human red blood cells (hRBCs) were washed with phosphate-buffered saline (PBS, pH 7.2) and centrifuged at 1000× g for 10 min at 4 °C until the supernatant was clear. 4% hRBCs and an equal volume of the peptides with different concentrations were incubated at 37 °C for 1 h. After incubation, the supernatant was collected by centrifugation, and 150 μL was transferred to a new 96-well plate (Corning, New York, NY, USA). The absorbance at 450 nm was measured. The 0.1% Triton X-100 was used as the positive control, and PBS was used as the negative control. The minimum hemolysis concentration (MHC) was defined as the lowest concentration of peptide that causes 10% hemolysis, and HL50 was the lowest concentration that causes 50% hemolysis. CSI was defined as the ratio of HL50 to MIC [31].

Sequence	CSI (cell selectivity index)
FLQRIIGRLGRLF [GHaR8R]	27
FLQRIIRALGRLF [GHaR7R]	1.8
FLQRIRGALGRLF [GHaR6R]	> 16
